Test results reported in paper PMC6539845.
These are yes or no findings as the source states them, for the method shown. Some binding calls cover weakened binding; strength is not graded here.

Target: human proteasome α7 subunit, wild type (human) (UniProt P25788)
Assay: SEC; single proteins, 0.3–10 μM, Superose 6 increase 10/300 GL, 20 mM Tris-HCl (pH 8.0), 150 mM NaCl; both purified

In the case of “human proteasome α7 subunit, wild type (from UniProt P25788 1-255)”, the binding is reported as “binds”.
